Patent US20040161776A1
No constants are given. Whether binding was seen depends on the method and setting. Some binding calls cover weakened binding; strength is not graded here.

The chains behind the UniProt entries cited, without tags or fusion partners. Where a name states a change or a piece, a line headed by the entry shows the natural chain unless it says otherwise.
UniProt Q04609: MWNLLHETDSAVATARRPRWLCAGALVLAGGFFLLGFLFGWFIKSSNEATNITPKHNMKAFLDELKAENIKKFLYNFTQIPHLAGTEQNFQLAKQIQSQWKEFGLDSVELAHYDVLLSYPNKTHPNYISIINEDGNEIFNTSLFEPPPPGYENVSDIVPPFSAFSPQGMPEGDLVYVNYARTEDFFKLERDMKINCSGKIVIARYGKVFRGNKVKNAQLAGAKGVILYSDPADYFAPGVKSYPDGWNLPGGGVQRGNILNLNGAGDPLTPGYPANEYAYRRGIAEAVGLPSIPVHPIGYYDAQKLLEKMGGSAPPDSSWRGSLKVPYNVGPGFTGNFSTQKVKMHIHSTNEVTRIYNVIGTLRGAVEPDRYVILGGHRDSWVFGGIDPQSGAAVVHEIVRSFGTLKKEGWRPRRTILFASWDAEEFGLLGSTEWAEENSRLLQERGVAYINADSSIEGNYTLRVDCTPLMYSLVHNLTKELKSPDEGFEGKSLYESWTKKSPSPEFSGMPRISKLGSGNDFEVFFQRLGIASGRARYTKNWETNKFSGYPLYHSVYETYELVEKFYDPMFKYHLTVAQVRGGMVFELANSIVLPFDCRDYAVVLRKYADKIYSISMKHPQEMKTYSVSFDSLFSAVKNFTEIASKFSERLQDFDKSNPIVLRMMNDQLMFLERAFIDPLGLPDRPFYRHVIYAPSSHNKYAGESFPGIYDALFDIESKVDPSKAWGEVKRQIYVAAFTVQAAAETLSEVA

Columns and labels:
[1] = target: prostate specific membrane antigen (PSMA), full-length human (human) (UniProt Q04609); assay: total cell-associated radioactivity on C4-2 cells at 37 C [panel Total Binding on C4-2]
[2] = target: prostate specific membrane antigen (PSMA), full-length human (human) (UniProt Q04609); assay: flow cytometry, 3T3-PSMA vs 3T3 cells
[3] = target: prostate specific membrane antigen (PSMA), full-length human (human) (UniProt Q04609); assay: flow cytometry, 3T3-PSMA cells against parent 3T3 cells
[4] = target: prostate specific membrane antigen (PSMA), full-length human (human) (UniProt Q04609); assay: flow cytometry, serial dilutions of culture supernatant
rsPSMA dimer (human) [5] = target: rsPSMA dimer (human) (UniProt Q04609); assay: Biacore, mAb immobilized, rsPSMA dimer 50 nM vs monomer 100 nM
rsPSMA dimer (human) [6] = target: rsPSMA dimer (human) (UniProt Q04609); assay: Biacore 3000, antibody amine-coupled to a CM5 chip, rsPSMA dimer at 50 nM flowed over
[7] = target: prostate specific membrane antigen (PSMA), full-length human (human) (UniProt Q04609); assay: flow cytometry on cell-surface PSMA, serial dilutions of unpurified mAb in culture supernatant
rsPSMA monomer (human) = rsPSMA monomer (human) (UniProt Q04609); assay: Biacore 3000, antibody amine-coupled to a CM5 chip, rsPSMA monomer at 100 nM flowed over

B1: 111In labeled mAb 026 (antibody, V domains shown)
VH: QVQLVESGGGVVQPGRSLRLSCAASGFTFSNYVMHWVRQAPGKGLEWVAIIWYDGSNKYYADSVKGRFTISRDNSKNTLYLQMNSLRAEDTAVYYCAGGYNWNYEYHYYGMDVWGQGTTVTVSS
VL: DIQMTQSPSSLSASVGDRVTITCRASQGITNYLAWFQQKPGKAPKSLIYAASSLQSGVPSKFSGSGSGTDFSLTISSLQPEDFATYYCQQYNSYPITFGQGTRLEIK
binding [1]: binds

B2: AB-PG1-XG1-051 (antibody, human IgG1, V domains shown)
VH: QVQLVESGGGVVQPGRSLRLSCAASGFTFSSYGMHWVRQAPGKGLDWVAIIWHDGSNKYYADSVKGRFTISRDNSKKTLYLQMNSLRAEDTAVYYCARAWAYDYGDYEYYFGMDVWGQGTTVTVSS
VL: DIQMTQSPSSLSASVGDRVTITCRASQGISHYLAWFQQKPGKAPKSLIYAASSLQSGVPSKFSGSGSGTDFTLTISSLQPEDFATYYCQQYNSFPLTFGGGTKVEIK
binding [2]: binds
binding [3]: binds

B3: AB-PG1-XG1-026 (antibody, human IgG1, V domains shown)
VH: QVQLVESGGGVVQPGRSLRLSCAASGFTFSNYVMHWVRQAPGKGLEWVAIIWYDGSNKYYADSVKGRFTISRDNSKNTLYLQMNSLRAEDTAVYYCAGGYNWNYEYHYYGMDVWGQGTTVTVSS
VL: DIQMTQSPSSLSASVGDRVTITCRASQGITNYLAWFQQKPGKAPKSLIYAASSLQSGVPSKFSGSGSGTDFSLTISSLQPEDFATYYCQQYNSYPITFGQGTRLEIK
binding [4]: binds
binding (rsPSMA dimer (human) [5]): binds
binding (rsPSMA dimer (human) [6]): binds
binding [7]: binds
binding (rsPSMA monomer (human)): binds
